Reference: paper PMC4439128
No constants are given. Whether binding was seen depends on the method and setting. In cells and extracts the contact can be indirect. Some entries that bind do so weakly or less than the wild type. Where a sequence is shown, tags or fusion partners need not be part of it.

The chains behind the UniProt entries cited, without tags or fusion partners.
UniProt P54843: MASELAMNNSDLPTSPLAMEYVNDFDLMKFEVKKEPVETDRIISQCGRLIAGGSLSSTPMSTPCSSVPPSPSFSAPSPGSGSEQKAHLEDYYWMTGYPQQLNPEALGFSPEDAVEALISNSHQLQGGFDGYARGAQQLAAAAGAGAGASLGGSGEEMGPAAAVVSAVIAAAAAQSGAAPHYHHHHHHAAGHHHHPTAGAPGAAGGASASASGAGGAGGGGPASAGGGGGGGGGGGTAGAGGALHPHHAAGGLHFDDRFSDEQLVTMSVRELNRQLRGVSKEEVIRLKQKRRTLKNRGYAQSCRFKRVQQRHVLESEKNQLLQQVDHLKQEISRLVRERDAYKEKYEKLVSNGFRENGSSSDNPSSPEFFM
UniProt Q03526: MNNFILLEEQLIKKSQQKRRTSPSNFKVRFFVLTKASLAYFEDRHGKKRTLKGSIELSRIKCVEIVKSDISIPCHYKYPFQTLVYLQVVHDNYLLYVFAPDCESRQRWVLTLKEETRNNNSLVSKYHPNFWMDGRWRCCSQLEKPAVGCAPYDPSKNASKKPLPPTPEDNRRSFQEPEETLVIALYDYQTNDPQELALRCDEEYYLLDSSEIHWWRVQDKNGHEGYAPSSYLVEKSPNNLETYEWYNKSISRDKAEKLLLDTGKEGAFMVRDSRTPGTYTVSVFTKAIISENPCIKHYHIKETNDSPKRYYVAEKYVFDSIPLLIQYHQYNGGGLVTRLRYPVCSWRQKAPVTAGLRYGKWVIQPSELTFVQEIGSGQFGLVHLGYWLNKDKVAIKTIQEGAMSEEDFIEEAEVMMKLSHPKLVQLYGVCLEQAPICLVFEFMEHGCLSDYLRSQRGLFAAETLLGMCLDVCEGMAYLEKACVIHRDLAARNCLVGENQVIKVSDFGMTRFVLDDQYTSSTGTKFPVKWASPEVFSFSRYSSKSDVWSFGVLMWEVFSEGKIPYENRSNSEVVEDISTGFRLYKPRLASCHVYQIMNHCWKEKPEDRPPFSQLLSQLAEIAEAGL

Target: HA-c-Maf (mouse) (UniProt P54843)
Experiment: co-IP; HA-c-Maf co-expressed with C-terminal 3XFLAG-tagged Tec kinases in HEK 293T cells; whole cell extract after 24 hours; IP with anti-c-Maf, blot with anti-FLAG

binding	Molecule
no binding	Itk-3XFLAG (from UniProt Q03526 1-625) (enzyme)
binds	Tec-3XFLAG (enzyme, UniProt P24604 1-630) MNFNTILEEILIKRSQQKKKTSLLNYKERLCVLPKSVLSYYEGRAEKKYRKGVIDISKIKCVEIVKNDDGVIPCQNKFPFQVVHDANTLYIFAPSPQSRDRWVKKLKEEIKNNNNIMIKYHPKFWADGSYQCCRQTEKLAPGCEKYNLFESSIRKTLPPAPEIKKRRPPPPIPPEEENTEEIVVAMYDFQATEAHDLRLERGQEYIILEKNDLHWWRARDKYGSEGYIPSNYVTGKKSNNLDQYEWYCRNTNRSKAEQLLRTEDKEGGFMVRDSSQPGLYTVSLYTKFGGEGSSGFRHYHIKETATSPKKYYLAEKHAFGSIPEIIEYHKHNAAGLVTRLRYPVSTKGKNAPTTAGFSYDKWEINPSELTFMRELGSGLFGVVRLGKWRAQYKVAIKAIREGAMCEEDFIEEAKVMMKLTHPKLVQLYGVCTQQKPIYIVTEFMERGCLLNFLRQRQGHFSRDMLLSMCQDVCEGMEYLERNSFIHRDLAARNCLVNEAGVVKVSDFGMARYVLDDQYTSSSGAKFPVKWCPPEVFNYSRFSSKSDVWSFGVLMWEIFTEGRMPFEKNTNYEVVTMVTRGHRLHRPKLATKYLYEVMLRCWQERPEGRPSLEDLLRTIDELVECEETFGR
no binding	Rlk-3XFLAG (enzyme, UniProt P42682 1-527) MILSSYSSFQSVLCCCCCRCSVQKRQVRTQISLSREEELSEKHSQRQRPWFAKLMGKTQSNRGGVQPSKRKPLPPLPQEPPDERIQVKALYDFLPREPGNLALKRAEEYLILERCDPHWWKARDRFGNEGLIPSNYVTENRLANLEIYEWYHKNITRNQTERLLRQEAKEGAFIVRDSRHLGSYTISVFTRARRHTQSSIKHYQIKKNDSGQWYITERHLFPSVPELIQYHQYNAAGLISRLRYPIGLLGSCLPATSGFSYEKWEIDPSELAFVKEIGSGQFGVVHLGEWRAHIPVAIKAINEGSMSEEDFIEEAKVMMKLSHSRLVQLYGVCIQQKPLYIVTEFMENGCLLDYLRERKGQLQKALLLSMCQDICEGMAYLERSCYIHRDLAARNCLVSSACVVKISDFGMARYVLDDEYISSSGAKFPVKWCPPEVFHFNKYSSKSDVWSFGVLMWEVFTEGKMPFENKSNLQVVEAISQGFRLYRPHLAPMTIYRVMYSCWHESPKGRPTFAELLQVLTEIAETW
